The values below come from paper PMC3257293.

The target of assay [1] is T1, Bfa1 (wild type), fused to the DNA binding domain in pGilda (S. cerevisiae) (UniProt P47113).
T1 sequence: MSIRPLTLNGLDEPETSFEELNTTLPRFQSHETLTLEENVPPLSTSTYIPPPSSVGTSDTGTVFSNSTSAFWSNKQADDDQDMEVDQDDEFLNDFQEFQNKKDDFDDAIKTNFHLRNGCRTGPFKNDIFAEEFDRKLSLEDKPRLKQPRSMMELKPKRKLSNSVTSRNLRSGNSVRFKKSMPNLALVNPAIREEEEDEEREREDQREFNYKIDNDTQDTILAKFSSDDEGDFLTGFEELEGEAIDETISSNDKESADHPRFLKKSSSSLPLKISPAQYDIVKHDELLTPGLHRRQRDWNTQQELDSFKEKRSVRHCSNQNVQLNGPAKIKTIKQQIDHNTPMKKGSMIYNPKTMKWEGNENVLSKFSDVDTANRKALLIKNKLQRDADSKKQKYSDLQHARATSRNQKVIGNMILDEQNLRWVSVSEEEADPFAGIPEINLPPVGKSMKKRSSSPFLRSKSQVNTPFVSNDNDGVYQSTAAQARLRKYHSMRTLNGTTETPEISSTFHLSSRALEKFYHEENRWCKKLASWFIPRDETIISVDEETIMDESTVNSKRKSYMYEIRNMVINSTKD
Put plainly: two-hybrid; Cdc5, Tem1 and Bub2 fused to the activation domain in pJG4-5; Bfa1 and each Bfa1 mutant fused to the DNA binding domain in pGilda; yeast strain EGY48 with the reporter plasmid pSH18-34; measured quantitatively.

Assay [2] deals with T2, Bfa1^4A (SSS452AAA S559A), fused to the DNA binding domain in pGilda (S. cerevisiae) (UniProt P47113).
T2 sequence: T1 sequence with S452A, S453A, S454A, S559A
The description is as above.

The target in assay [3] is T3, 3XHA-tagged Kin4 (KIN4-3HA) (S. cerevisiae) (UniProt Q01919).
T3 sequence: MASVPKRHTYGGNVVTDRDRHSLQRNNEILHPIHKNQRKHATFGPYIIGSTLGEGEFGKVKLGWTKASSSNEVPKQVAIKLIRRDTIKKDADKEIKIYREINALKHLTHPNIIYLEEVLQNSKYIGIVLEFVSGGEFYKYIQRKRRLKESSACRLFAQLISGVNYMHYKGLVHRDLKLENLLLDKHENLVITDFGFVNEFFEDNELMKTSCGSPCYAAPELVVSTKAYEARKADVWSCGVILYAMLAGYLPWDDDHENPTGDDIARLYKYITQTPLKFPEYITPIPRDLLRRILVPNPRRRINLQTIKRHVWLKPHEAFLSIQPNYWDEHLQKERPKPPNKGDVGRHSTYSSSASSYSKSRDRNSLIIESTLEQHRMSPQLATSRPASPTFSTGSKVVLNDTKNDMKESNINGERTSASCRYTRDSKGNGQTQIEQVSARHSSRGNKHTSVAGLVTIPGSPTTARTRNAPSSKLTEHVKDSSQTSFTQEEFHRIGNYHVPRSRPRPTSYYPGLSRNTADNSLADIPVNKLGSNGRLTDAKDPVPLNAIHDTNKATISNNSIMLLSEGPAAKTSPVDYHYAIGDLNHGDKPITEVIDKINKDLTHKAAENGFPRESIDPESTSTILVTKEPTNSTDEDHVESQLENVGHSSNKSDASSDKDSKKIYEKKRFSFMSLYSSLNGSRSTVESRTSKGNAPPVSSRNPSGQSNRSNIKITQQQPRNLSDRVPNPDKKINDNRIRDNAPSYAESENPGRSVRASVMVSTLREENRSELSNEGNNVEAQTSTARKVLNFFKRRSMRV
Put plainly: co-IP; Crude extracts of yeast grown at 25°C to mid-log phase; Kin4-3HA purified with anti-HA followed by protein A-agarose; co-precipitates blotted with PAP for Bfa1-TAP or Bfa1^4A-TAP.

Numbering of substitutions follows the chain as printed. Results are given in words; binding and its absence hold for the method and conditions named. For part of these data: Binding seen in cells or lysates may run through a third protein. Some binding calls cover weakened binding; strength is not graded here. Where a sequence is shown, tags or fusion partners need not be part of it.

B1: Bub2, fused to the DNA activation domain in pJG4-5 (protein, UniProt P26448 1-306)
chain: MTSIEDLISNPPLLLHSSLSQLRYLILSEGLPISEDKQQQRTRCYVWTVLSQTSMEASTQRYLALLKLGPPSTTIYQKIKNDTSRTFQTDPNFRNRVSEDALIRCLSCFAWQTQQRRQKTRFGRIPVSTYVQGMNVLLAPLLYSCPSEPMAYQLFTKLCYEMIPTYLTKNLNGAQNGAKLLDISLRIIDPKLSKFLSDNLLTAEIYGMPSILTLSSCNKPLDQVIKLWDFMFAYGFHMNILFVVAFLVKMRSKVFKSDSPVNLLRQFPDFDADEIIRLGVGFIAKIPAQIYDLLVDHLTDPDIYIP
For B1, the binding result in assay [1] and in assay [2] was “binds” each time.

B2: TAP-tagged Bfa1 (BFA1-TAP) (protein, UniProt P47113 1-574)
chain: T1 sequence
As for B2, the binding result in assay [3] was “binds”.

B3: TAP-tagged Bfa1^4A (BFA1^4A-TAP) (protein, UniProt P47113 1-574)
chain: T1 sequence with S452A, S453A, S454A, S559A
Regarding B3, the binding entry in assay [3] was “binds”.

B4: Tem1, fused to the DNA activation domain in pJG4-5 (enzyme, UniProt P38987 1-245)
chain: MATPSTGANNSIPAVRNQVEVQVGLVGDAQVGKTSLMVKYVQNIYDKEYTQTLGVNFLKRKVSIRSTDIIFSIMDLGGQREFINMLPIATVGSSVIIFLFDLTRPETLSSIKEWYRQAYGLNDSAIPILVGTKYDLLIDLDPEYQEQISRTSMKYAQVMNAPLIFCSTAKSINIQKIFKIALAKIFNLTLTIPEINEIGDPLLIYKHLGGQQHRHHNKSQDRKSHNIRKPSSSPSSKAPSPGVNT
B4: the binding result in assay [1] and in assay [2] was “binds” throughout.
